# Data from publication PMC11528463.
# Amino acid sequences for entries named in this document (tags omitted).
# UniProt Q03135: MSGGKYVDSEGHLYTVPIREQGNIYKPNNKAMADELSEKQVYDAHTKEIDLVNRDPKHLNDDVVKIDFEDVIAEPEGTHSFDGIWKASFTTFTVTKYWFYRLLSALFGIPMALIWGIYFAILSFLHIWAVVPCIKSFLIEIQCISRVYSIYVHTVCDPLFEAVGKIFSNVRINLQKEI
# UniProt Q05397: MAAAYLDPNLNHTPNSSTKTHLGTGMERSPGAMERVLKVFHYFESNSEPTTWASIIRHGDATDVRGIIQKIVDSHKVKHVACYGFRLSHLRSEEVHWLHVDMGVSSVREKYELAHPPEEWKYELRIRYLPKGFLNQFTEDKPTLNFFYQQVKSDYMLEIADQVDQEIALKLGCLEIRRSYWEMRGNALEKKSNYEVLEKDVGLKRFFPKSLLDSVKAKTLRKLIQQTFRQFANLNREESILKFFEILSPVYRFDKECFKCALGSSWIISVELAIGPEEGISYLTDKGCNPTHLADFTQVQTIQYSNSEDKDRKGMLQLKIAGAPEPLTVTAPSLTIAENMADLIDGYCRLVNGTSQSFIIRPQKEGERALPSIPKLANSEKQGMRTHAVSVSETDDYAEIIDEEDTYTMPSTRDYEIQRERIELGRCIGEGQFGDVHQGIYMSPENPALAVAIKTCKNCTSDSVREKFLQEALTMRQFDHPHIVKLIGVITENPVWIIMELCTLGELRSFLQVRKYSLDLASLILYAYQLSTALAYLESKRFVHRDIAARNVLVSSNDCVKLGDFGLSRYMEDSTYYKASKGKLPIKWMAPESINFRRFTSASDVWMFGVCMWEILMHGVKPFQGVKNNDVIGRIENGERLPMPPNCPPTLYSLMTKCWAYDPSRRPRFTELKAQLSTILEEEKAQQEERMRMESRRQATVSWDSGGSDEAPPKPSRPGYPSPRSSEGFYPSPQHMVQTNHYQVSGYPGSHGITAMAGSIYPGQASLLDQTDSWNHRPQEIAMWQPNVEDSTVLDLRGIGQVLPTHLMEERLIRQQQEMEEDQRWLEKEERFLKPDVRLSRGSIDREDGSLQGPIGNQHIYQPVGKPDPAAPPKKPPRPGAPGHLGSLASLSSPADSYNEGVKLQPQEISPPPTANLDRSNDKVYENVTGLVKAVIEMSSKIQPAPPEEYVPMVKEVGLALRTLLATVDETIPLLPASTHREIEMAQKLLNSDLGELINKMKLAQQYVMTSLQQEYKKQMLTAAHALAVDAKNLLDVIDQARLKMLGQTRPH
# No constants are given. Whether binding was seen depends on the method and setting. Binding seen in cells or lysates may run through a third protein. Some entries that bind do so weakly or less than the wild type.
# B1: Integrin α6 (ITGA6) (receptor, UniProt P23229 24-1130)
# chain: FNLDTREDNVIRKYGDPGSLFGFSLAMHWQLQPEDKRLLLVGAPRAEALPLQRANRTGGLYSCDITARGPCTRIEFDNDADPTSESKEDQWMGVTVQSQGPGGKVVTCAHRYEKRQHVNTKQESRDIFGRCYVLSQNLRIEDDMDGGDWSFCDGRLRGHEKFGSCQQGVAATFTKDFHYIVFGAPGTYNWKGIVRVEQKNNTFFDMNIFEDGPYEVGGETEHDESLVPVPANSYLGLLFLTSVSYTDPDQFVYKTRPPREQPDTFPDVMMNSYLGFSLDSGKGIVSKDEITFVSGAPRANHSGAVVLLKRDMKSAHLLPEHIFDGEGLASSFGYDVAVVDLNKDGWQDIVIGAPQYFDRDGEVGGAVYVYMNQQGRWNNVKPIRLNGTKDSMFGIAVKNIGDINQDGYPDIAVGAPYDDLGKVFIYHGSANGINTKPTQVLKGISPYFGYSIAGNMDLDRNSYPDVAVGSLSDSVTIFRSRPVINIQKTITVTPNRIDLRQKTACGAPSGICLQVKSCFEYTANPAGYNPSISIVGTLEAEKERRKSGLSSRVQFRNQGSEPKYTQELTLKRQKQKVCMEETLWLQDNIRDKLRPIPITASVEIQEPSSRRRVNSLPEVLPILNSDEPKTAHIDVHFLKEGCGDDNVCNSNLKLEYKFCTREGNQDKFSYLPIQKGVPELVLKDQKDIALEITVTNSPSNPRNPTKDGDDAHEAKLIATFPDTLTYSAYRELRAFPEKQLSCVANQNGSQADCELGNPFKRNSNVTFYLVLSTTEVTFDTPDLDINLKLETTSNQDNLAPITAKAKVVIELLLSVSGVAKPSQVYFGGTVVGEQAMKSEDEVGSLIEYEFRVINLGKPLTNLGTATLNIQWPKEISNGKWLLYLVKVESKGLEKVTCEPQKEINSLNLTESHNSRKKREITEKQIDDNRKFSLFAERKYQTLNCSVNVNCVNIRCPLRGLDSKASLILRSRLWNSTFLEEYSKLNYLDILMRAFIDVTAAAENIRLPNAGTQVRVTVFPSKTVAQYSGVPWWIILVAILAGILMLALLVFILWKCGFFKRSRYDDSVPRYHAVRIRKEEREIKDEKYIDNLEKKQWITKWNENESYS
# Target: Caveolin-1 (CAV1), in MDA-MB-231 breast cancer cells (human (endogenous in MDA-MB-231)) (UniProt Q03135)
# Assay: co-IP; MDA-MB-231 cells; RIPA lysate with PMSF and phosphatase inhibitor; Caveolin-1 antibody or species-matched IgG overnight at 4°C, Protein A/G agarose 2-4 h, 3 PBS washes; Western blot
molecule,measurement,value
Focal adhesion kinase (FAK) (from UniProt Q05397 1-1052) (enzyme),binding,binds
B1,binding,no binding
